Among the data in US20230257454A1 (STAIDSON BEIJING BIOPHARMACEUTICALS, published 2023) are binding values, retold here.

Results are given in words; binding and its absence hold for the method and conditions named. Some binding calls cover weakened binding; strength is not graded here.

Assay [1] deals with T1, human endogenous C5a (human, UniProt P01031 678-751, limits assumed).
T1 sequence: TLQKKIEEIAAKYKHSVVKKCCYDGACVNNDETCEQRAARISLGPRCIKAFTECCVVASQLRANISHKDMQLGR
The assay can be described thus: ELISA, C5a coated, scFv detected with anti-flag. A general note: In an ELISA, binding on a coated surface is turned into a signal by an enzyme label.

Assay [2] has as its target T1, human endogenous C5a. The assay can be described thus: ELISA, plate coated with human eC5a, scFv titrated, OD410.
Assay [3] concerns the target T2, human C5a (source not stated) (human, UniProt P01031 678-751).
T2 sequence: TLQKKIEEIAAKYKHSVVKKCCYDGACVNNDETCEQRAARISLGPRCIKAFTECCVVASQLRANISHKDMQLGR
The assay can be described thus: ELISA on the coated protein, biotinylated Cab42 titrated, SA-HRP, OD410.

Assay [4] has as its target T1, human endogenous C5a. The assay can be described thus: SPR (Biacore T200).

B1: Cab05 scFv (scFv, V domains shown)
VH: EMQLVESGGGLVQPGGSLRLSCAASGFTFSDYYMQWVRQAPGKGPEWVGLIRNKAVGGTTQYAASVKGRFTISRDDSKNSVYLQMNSLKTEDTAVYYCVSRAGPPGLSWGQGVLVTVSS
VL: DIVMTQSPLSLPVTPGEPASISCRSSQSLLASDGYNYIDWYLQKPGQSPQLLIYGGSNRASGVPDRFSGSGSGTDFTLKISRVEAEDVGVYFCLQHRALPPTFGQGTKLEIK
notes: scFv
In the case of B1, the binding entry in assay [1] and in assay [2] was “binds” each time.

B2: Cab42-IgG1 (antibody, V domains shown)
VH: EMQLVESGGGLVQPGGSLRLSCAASGFTFSDYYMQWVRQAPGKGPEWVGLIRNKAVGETTQYAASVKGRFTISRDDSKNSVYLQMNSLKTEDTAVYYCVSRAGPPGLSWGQGVLVTVSS
VL: DIVMTQSPLSLPVTPGEPASISCRSSQSLLASDAYNYIDWYLQKPGQSPQLLIYGGSNRASGVPDRFSGSGSGTDFTLKISRVEAEDVGVYFCLQHRALPPTFGQGTKLEIK
notes: Full-length human IgG1; It was biotinylated in the peptide-Fc ELISA
Take B2: in assay [3], the binding result is “binds”.

B3: Cab05-IgG4 (antibody, V domains shown)
VH: EMQLVESGGGLVQPGGSLRLSCAASGFTFSDYYMQWVRQAPGKGPEWVGLIRNKAVGGTTQYAASVKGRFTISRDDSKNSVYLQMNSLKTEDTAVYYCVSRAGPPGLSWGQGVLVTVSS
VL: DIVMTQSPLSLPVTPGEPASISCRSSQSLLASDGYNYIDWYLQKPGQSPQLLIYGGSNRASGVPDRFSGSGSGTDFTLKISRVEAEDVGVYFCLQHRALPPTFGQGTKLEIK
notes: Full-length human IgG4 with a human kappa or lambda light chain constant domain
For the molecule B3, the binding entry in assay [4] was “binds”.

B4: Cab01 scFv (scFv, V domains shown)
VH: EVQLVESGGGMVQPGGSLRVSCAASGFTFTKYYMQWVRQAPGKGPEWVGLIRNKANGGTAEYVASVKDRFTISRDDSKSIAYLQMSSLKTEDTAVYYCVMRDNGYHWGQGVLVTVSS
VL: DIVLTQTPLSLPVTPGEPASISCRSSQRLLHSDGYTYLDWYLQKPGQSPQLLIYGGSNRASGVPDRFSGSGSGTDFTLKISKVEAEDVGVYYCMQHKALPLTFGGGTKVEIK
B4: the binding result in assay [1] and in assay [2] was “binds” throughout.

B5: Cab15 scFv (scFv, V domains shown)
VH: VVQLVESGGGLVQPGGSLKVSCAASGFTFSDYYMQWVRQAPGKGPEWVGLIRNKAIGETTEYAASVKGRFTISRDDSKSIVYLQMSSLKPEDTAVYYCAGRLGPPGLSWGQGVLVTVSS
VL: DIVMTQNPLSLPVTPGEPASISCRSSQSLLATDGYTYLDWYLQKPGQSPQVLIYGGSKRASGVPDRFSGSGSGTDFTLKITKVEAEDVGIYYCMQHKALPPTFGQGTKLEIK
Take B5: the binding result in assay [1] and in assay [2] was “binds” throughout.

B6: Cab03 scFv (scFv, V domains shown)
VH: EVQLVESGGGLVQPGGSLKVSCAASGFIFSDYYMQWVRQAPGKGPEWVGLIRKKVNGGTTEYAASVKGRFTISRDDSKSIVYLQMSSLKIEDTAVYYCVSRAGPPGLTWGQGVLVTVSS
VL: DIVLTQTPLSLAVSPGEPASISCRSSQSLLASDGYTYLDWYLQKPGQSPQILIYGGSNRASGVPDRFSGRGSGTDFTLKITKVEAEDVGVYYCLQHRALPPTFGQGTKLEIK
As to B6, the binding entry in assay [1] and in assay [2] was “binds” in each case.

B7: Cab13 scFv (scFv, V domains shown)
VH: VVQLVESGGGLVQPGGSLKVSCAASGFTFSDYYMQWVRQAPGKGPEWVGLIRNKAIGGTTQYAASVKGRFTISRDDSKSIVYLQMSSLKTEDTAVYYCVSRAGPPGLSWGQGVLVTISS
VL: DIVMIQNPLSLPVTPGEPASISCRSSQSLLASDGYNYMDWYLQKPGQSPKVLIYGGSNRASGVPDRFSGSGSGTDFTLKITKVEAEDVGIYYCMQHKVLPPTFGQGTKLEIK
As to B7, the binding result in assay [1] and in assay [2] was “binds” in each case.

B8: Cab04 scFv (scFv, V domains shown)
VH: EVQLVQSGGGLVQPGGSLKVSCAASGFTFSDYYMQWVRQAPGKGPEWVGLIRNKAIGGTTQYAASVKGRFTISRDDSKSIVYLQMSSLKTEDTAVYYCVSRAGPPGLSWGQGVVVTVSS
VL: DIVMIQTPLSLPVTPGEPASISCRSSQRLLHTDGYTYLDWYLQKPGQSPQLLIYGGSNRASGVPDRFSGSGSGSDFTLKISKVEAEDVGVYYCLQHKALPLTFGGGTKLEIK
For the molecule B8, the binding result in assay [1] and in assay [2] was “binds” each time.
